Where “and” joins values, the source holds several entries; their conditions need not be identical. Identical values can stand only once. The list shows a part of the results. Shown are side measurements of this screen, not its main read-out; they come without a call. Compounds called inactive in the main read-out are mostly missing here. Potencies come from curve fits of mixed quality, noted in brackets.

This assay in a line: qHTS Assay to Find Inhibitors of Chronic Active B-Cell Receptor Signaling. The conditions noted are these: ABC-DLBCL IkBa-CBG/CBR reporter, luminescence ratio (green luciferase fused to IkBa over red control in TMD8 lymphoma cells), 4 h. The gist of the method: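 Concentration-response series (up to 46 uM) were applied to TMD8 dual-reporter cells for 4 h at 37C with doxycycline. Green/red ratio, after filter-overlap correction, defined %Activity; red signal alone was normalised to basal cells and zero luminescence.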
A general note: In qHTS, concentration-response curves come from the screen itself.

[1] abbreviates: measured here: CBR red luminescence, cell number.
[2] abbreviates: measured here: IkBa-CBG green luminescence.

Consider `CC(/C=N/NC(=O)c1cc(-c2cccs2)[nH]n1)=C\c1ccccc1`, for which, under setting [1], the concentration at half-maximal activity (AC50) was 2.06 µM [falling, full curve].
`CCOc1cc(/C=C2/COc3ccccc3C2=O)ccc1OCC(=O)N(C)C`: under setting [1], the AC50 was 6.31 µM [falling, full curve].
With `CCOC(=O)Cc1csc(NC(=O)c2ccc(Cl)s2)n1`, under setting [1], the AC50 was 4.47 µM [falling, full curve, poor fit].
On the same count and under the same terms, under `COc1cccc(C(=O)NC(=S)N2c3ccccc3CC2C)c1OC` (stereo unspecified) stands 10 µM [rising, single point]; under `N#C/C(=C\c1cccnc1)c1ccccc1[N+](=O)[O-]`, 31.6 µM [falling, single point]; under `COc1ccc(NS(=O)(=O)c2coc(C(N)=O)c2)cc1Cl`, 11.6 µM [rising, partial curve, poor fit].
For the molecule `O=[N+]([O-])c1cnc(Sc2ccncn2)s1`, the concentration at half-maximal activity (AC50) under setting [1] was 5.62 µM [rising, single point] and the AC50 under setting [2] was 5.62 µM [falling, single point].
In the case of `O=C(Nc1ccccc1)Nc1nc(-c2ccc(F)c(F)c2)cs1`, the AC50 under setting [1] was 35.5 µM [falling, single point].
Take `Cn1c(CN2CCCCC2)nc2cc(NC(=O)c3ccc(Cl)cc3)ccc21`: the concentration at half-maximal activity (AC50) under setting [1] was 35.5 µM [falling, single point].
In the case of `COc1ccc(/C=N/Nc2nnc(C)n2N)cc1OC(C)=O`, the concentration at half-maximal activity (AC50) under setting [1] was 35.5 µM [falling, single point].
Still for that read-out and setting: to `Cc1ccc2nc(NC(=O)CS(=O)(=O)Cc3ccccc3)sc2c1` belongs 35.5 µM [falling, single point]; to `COc1ccc(/C=C(\NC(=O)c2ccc([N+](=O)[O-])cc2)C(=O)N2CCOCC2)cc1`, 20 µM [rising, partial curve, poor fit].
On the same count and under the same terms, to `COc1ccccc1-n1c(CCn2nc(C)c(Br)c2C)n[nH]c1=S` belongs 18.4 µM [falling, single point]; to `S=C(NNC(=S)Nc1ccccc1)Nc1ccccc1`, 10 µM [falling, partial curve, poor fit]; to `O=c1[nH]c2ccccc2nc1/C=C/c1ccc(O)cc1`, 14.1 µM [falling, single point].
Same read-out and setting: to `CC1=C(C(=O)Nc2ccccc2F)C(c2ccsc2)C2=C(CC(C)(C)CC2=O)N1` (stereo unspecified) belongs 3.26 µM [falling, partial curve, poor fit].
Turning to `O=C(/C=C\Nc1ccccc1Br)c1ccc2c(c1)OCO2`, the AC50 under setting [1] is 12.6 µM [falling, partial curve].
For the molecule `COC(=O)Cc1nc2ccccc2[nH]1`, the AC50 under setting [1] was 7.94 µM [falling, partial curve, poor fit].
For `N#Cc1c(NC(=O)CSc2ncnc3sccc23)oc(-c2ccco2)c1-c1ccco1`, the AC50 under setting [2] was 1 µM [rising, full curve, poor fit].
`C=CCC[C@@H](Cc1ccc(F)cc1)C(=O)OC[C@H](C)NC(=O)[C@@H](CC=C)CC(=O)N(CCO)Cc1ccccc1`: the AC50 under setting [1] was 10.3 µM [falling, partial curve, poor fit].
Consider `S=c1nc(C2CC2)[nH]c2ccccc12`, for which the half-maximal activity concentration (AC50) runs as follows: under setting [1], 5.8 µM [rising, single point]; under setting [2], 10.3 µM [falling, partial curve, poor fit].
As for `CCCCSc1nnc(-c2ccccc2N)c(=O)[nH]1`, the half-maximal activity concentration (AC50) under setting [1] is 35.5 µM [falling, single point].
The same measure, in the same setting: under `CCCCCCC(=O)Nc1nc(C)c(-c2csc(Nc3cc(OC)ccc3OC)n2)s1` stands 17.8 µM [falling, partial curve, poor fit].
Same read-out and setting: under `Cn1cccc1C1(C(F)(F)F)NCCNC1=O` (stereo unspecified) stands 6.51 µM [rising, single point]; under `COc1cccc(-c2cc(C(=O)Nc3cnn(Cc4ccc(F)cc4)c3)no2)c1`, 8.91 µM [falling, partial curve].
Still for that read-out and setting: under `O=C(Oc1ccc2c(c1)OCO2)c1cc2c(s1)CCC2` stands 35.5 µM [rising, single point]; under `Cc1cc(C)nc(Nc2nc(=O)c3ccccc3s2)n1`, 8.91 µM [falling, partial curve, poor fit].
For the molecule `Nc1ncnc2c1ncn2C1OC(CO)C(O)C1O` (stereo unspecified), the concentration at half-maximal activity (AC50) under setting [1] was 15.8 µM [rising, partial curve] and the AC50 under setting [2] was 35.5 µM [falling, partial curve, poor fit].
Take `CN(C)c1ccc(-c2ccc([C@H]3[C@@H]4C=CCC[C@@]4(C)C(=O)N3Cc3ccccc3)c(F)c2)cc1`: the concentration at half-maximal activity (AC50) under setting [1] was 22.4 µM [rising, single point].
On the same count and under the same terms, to `Cc1ccc(CNc2ncc(-c3ccc4c(c3)OCO4)n2C)cc1` belongs 14.1 µM [rising, single point]; to `Cc1ccccc1C(=O)OCc1cnc(Cl)s1`, 17.8 µM [rising, single point]; to `CCCC12CN3CCN(CC(C3)/C1=N\NC(=O)c1ccccc1Cl)C2`, 3.55 µM [falling, full curve, poor fit].
Still for that read-out and setting: to `CCN(CC(=O)Nc1c(F)cccc1F)C(=O)c1ccc(-c2ccc(C(C)=O)cc2)o1` belongs 2.91 µM [rising, full curve, poor fit].
Same read-out and setting: under `COC(=O)C1=C(C)N(CCC2=CCCCC2)C(=O)C1` stands 0.00411 µM [falling, full curve, poor fit]; under `Cc1ccccc1/C=N/NC(=O)Cn1cnc([N+](=O)[O-])n1`, 6.51 µM [rising, single point]; under `COc1cccc(-c2ccc3ncnc(NCc4ccc5c(c4)OCO5)c3c2)c1`, 29.1 µM [falling, single point] and 13 µM [falling, partial curve, poor fit].
For `c1ccn(-c2ccc(-c3ccn[nH]3)cc2)c1`, the concentration at half-maximal activity (AC50) under setting [1] was 2.24 µM [rising, partial curve].
Still for that read-out and setting: to `CCOc1ccc(-c2cc(CCCC(=O)NCCc3ccc(OC)c(OC)c3OC)no2)cc1` belongs 22.4 µM [falling, partial curve, poor fit]; to `Cc1cc(C)nc(SC(C(=O)O)c2ccccc2)n1` (stereo unspecified), 5.17 µM [rising, partial curve, poor fit]; to `CCn1cc([N+](=O)[O-])c(C(=O)N2N=C(c3ccccc3)CC2c2ccc([N+](=O)[O-])cc2)n1` (stereo unspecified), 1.64 µM [rising, partial curve, poor fit].
Same read-out and setting: under `Cc1nc(N2CCOCC2)[nH]c(=O)c1[N+](=O)[O-]` stands 3.98 µM [rising, full curve, poor fit].
For `COc1ccc(-c2cc(-c3cccs3)c(C#N)c(SCC(=O)NCc3ccco3)n2)cc1`, the AC50 under setting [1] was 11.2 µM [rising, partial curve] and the AC50 under setting [2] is 12.6 µM [falling, partial curve, poor fit].
Turning to `Oc1ccccc1/C=N/Nc1cccc2cccnc12`, the concentration at half-maximal activity (AC50) under setting [1] is 10 µM [falling, single point].
Still for that read-out and setting: under `CCN(C(=O)COC(=O)/C(=C/c1ccccc1)n1nnnc1C)C1CCCCC1` stands 3.26 µM [falling, full curve]; under `CCOC(=O)CSc1nnc(CSc2nc(C)cc(C)n2)n1Cc1ccco1`, 0.13 µM [rising, full curve, poor fit].
Same read-out and setting: to `O=C(CN1CCc2cc3c(cc2C1)OCCCO3)Nc1cccc(Br)c1` belongs 17.8 µM [falling, single point].
On the same count and under the same terms, under `Cc1cc(C)n(-c2nc(-c3cccc(Cl)c3)cs2)n1` stands 14.1 µM [rising, partial curve, poor fit].
Turning to `O=C(Nc1ncc([N+](=O)[O-])s1)C1COc2ccccc2O1` (stereo unspecified), under setting [1], the half-maximal activity concentration (AC50) is 0.891 µM [falling, full curve].
Take `COc1cc(OC)cc(-c2cc3ccc(OC)cc3cn2)c1`: the AC50 under setting [1] was 23.1 µM [falling, partial curve].
Still for that read-out and setting: to `O=C(NCC(=O)N1CCN(Cc2ccc3c(c2)OCO3)CC1)c1ccccc1F` belongs 6.51 µM [rising, single point]; to `COc1ccc(Nc2cc(C)nc3ccc(OC)cc23)cc1`, 3.55 µM [falling, full curve]; to `CC(=O)N1CCc2cc(S(=O)(=O)N3CCCCCC3)ccc21`, 22.4 µM [rising, partial curve, poor fit].
Still for that read-out and setting: to `Cc1ccc(Nc2nnc(SCC(=O)c3cc4ccccc4o3)s2)cc1C` belongs 2.59 µM [rising, partial curve, poor fit].
`CC(C)(C)N1C(=O)[C@H]2[C@@H](c3ccc(Br)cc3)N3C(=O)N(c4ccccc4)C(=O)[C@@]3(Cc3ccccc3)[C@H]2C1=O`: the AC50 under setting [1] is 25.9 µM [falling, partial curve, poor fit].
Same read-out and setting: to `CCc1ccc2c(c1)C1(C(=O)N2)N2CCCC2C(C(=O)c2ccc3ccccc3c2)C12C(=O)Nc1ccccc12` (stereo unspecified) belongs 16.4 µM [falling, single point]; to `O=[N+]([O-])c1ccc(N/N=C2/CCCCC2c2ccccn2)cc1` (stereo unspecified), 16.4 µM [falling, partial curve]; to `O=C(CSc1nnc(CNc2ccc(F)cc2)n1CC1CCCO1)Nc1ccccc1` (stereo unspecified), 29.1 µM [falling, single point].
Still for that read-out and setting: to `N=c1oc2cc(O)ccc2cc1C(=O)Nc1ccc(Br)cc1` belongs 0.1 µM [falling, full curve].
Same read-out and setting: under `Cc1cc(NC(=O)CCC(=O)N(CC(=O)NC2CCCC2)Cc2ccc(F)cc2)no1` stands 0.731 µM [rising, full curve].
Turning to `COc1cc(NC(=O)CN(c2ccc(C)cc2)S(=O)(=O)c2c(C)noc2C)cc(OC)c1`, the concentration at half-maximal activity (AC50) under setting [1] is 12.6 µM [falling, partial curve, poor fit].
Same read-out and setting: under `O=C(Nc1cccc(O)c1)c1cccc(NC(=O)c2cccs2)c1` stands 25.1 µM [falling, single point].
With `COCC(C)n1c(COc2ccccc2F)nnc1SCc1c(C)noc1C` (stereo unspecified), the concentration at half-maximal activity (AC50) under setting [1] was 29.1 µM [falling, single point].

As a reminder, the AC50 is the concentration at which the activity in the assay is half-maximal.

For the origin of these results see PubChem BioAssay AID493014 (National Center for Advancing Translational Sciences (NCATS), 2011).
